Measured values: article doi:10.1101/2021.12.21.473709
Results are given in words; binding and its absence hold for the method and conditions named. For some assays here: In cells and extracts the contact can be indirect. Some entries that bind do so weakly or less than the wild type. Where a sequence is shown, tags or fusion partners need not be part of it. One block for each binder: values may come before it.

Legend:
[1] = biological target: T1, ABA-…(ABI)5, GAL4 fusion for yeast two-hybrid (Arabidopsis) (UniProt Q9SJN0); assay: two-hybrid
T1 sequence: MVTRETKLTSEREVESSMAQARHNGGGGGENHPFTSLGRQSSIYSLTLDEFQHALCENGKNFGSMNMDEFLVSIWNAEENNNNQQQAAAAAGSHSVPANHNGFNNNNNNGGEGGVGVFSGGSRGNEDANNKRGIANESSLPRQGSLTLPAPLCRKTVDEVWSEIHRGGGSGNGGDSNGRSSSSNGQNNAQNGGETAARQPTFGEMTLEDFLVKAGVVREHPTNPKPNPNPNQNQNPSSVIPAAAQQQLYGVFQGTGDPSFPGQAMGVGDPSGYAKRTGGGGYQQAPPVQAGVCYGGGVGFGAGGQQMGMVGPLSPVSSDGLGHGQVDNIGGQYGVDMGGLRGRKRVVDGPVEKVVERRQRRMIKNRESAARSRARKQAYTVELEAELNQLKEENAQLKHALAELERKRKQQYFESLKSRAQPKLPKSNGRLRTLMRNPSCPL

[2] = biological target: T2, ABI5, split YFP fusion (Arabidopsis) (UniProt Q9SJN0); assay: split reporter
T2 sequence: T1 sequence

[3] = biological target: T3, ABI5/ABF interacting protein AFP2, GAL4 fusion for yeast two-hybrid (Arabidopsis) (UniProt Q9LMX5); assay: two-hybrid
T3 sequence: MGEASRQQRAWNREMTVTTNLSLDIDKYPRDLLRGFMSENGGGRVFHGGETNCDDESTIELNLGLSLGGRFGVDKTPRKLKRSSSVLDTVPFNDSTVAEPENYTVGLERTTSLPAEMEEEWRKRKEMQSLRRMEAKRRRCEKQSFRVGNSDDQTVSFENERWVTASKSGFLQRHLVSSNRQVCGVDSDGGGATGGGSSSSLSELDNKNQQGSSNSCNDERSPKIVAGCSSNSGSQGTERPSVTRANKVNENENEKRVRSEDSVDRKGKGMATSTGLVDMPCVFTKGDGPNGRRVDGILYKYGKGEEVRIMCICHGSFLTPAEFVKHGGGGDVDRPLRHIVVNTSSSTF

binding [1]: binds
B1: ABI5/ABF interacting protein AFP2, GAL4 fusion for yeast two-hybrid (protein, UniProt Q9LMX5 1-348)
chain: T3 sequence

binding [2]: binds
B2: AFP2, split YFP fusion (protein, UniProt Q9LMX5 1-348)
chain: T3 sequence

binding [1]: binds
binding [3]: binds
B3: ABI5/ABF interacting protein AFP1, GAL4 fusion for yeast two-hybrid (protein, UniProt Q9LQ98 1-345)
chain: MAEANERSKEMARSNSCVFPRDLLQRFISNSVEGEDDDEEEDDDEIELNLGLSLGGRFGVDKSNKLVRSSSVVVTMPLFREDHHHHQAAAMITTKVSTETVAGATRGTGLMRTTSLPAESEEEWRKRKEMQTLRRMAAKRRRSEKLRTGVGGGNSNNPEEAATATASRRRGRPSSGLPRWSATANKSGLLRQHSAGLDSLQVSGESLGGGRAAGSSSSVSELETKASSDEARSLPSTTQPQQETTTKPTNRLRRLSSVDMNMKMEPQGKGKSEMPCVFTKGDGPNGKRVDGILYRYGSGEEVRIMCVCHGDFLSPADFVKHAGGPHVDHPLRHIVVNTSSPSNLL

binding [2]: binds
B4: AFP1, split YFP fusion (protein, UniProt Q9LQ98 1-345)
chain: B3 chain
